Data as given in PubChem BioAssay AID1508597 (Cure First, 2020).

Aim: 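Survival screen with siRNA in ovarian cancer cells derived from patients, with or without rucaparib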 (primary screen)
Cells: human ovarian carcinoma lines grown from tumours: OCI-P5x (papillary serous) and OCI-C5x (clear cell)
Reagent: siRNA pool against human genes, 1.25 pmol siRNA per well
Duration: 72 h or 96 h, depending on the cell culture
Treatment: rucaparib 20 µM (about IC30) or vehicle, present until read-out
Rucaparib or vehicle: Vehicle
Cell line: OCI-P5x (serous)
Read-out: 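Luminescent ATP-based viability assay read 72 or 96 h after transfection, depending on culture, given as normalised percent viability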
Reading the numbers: viability, normalised: higher = more viable cells remaining
Rule for the call: 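Active when normalised viability falls below 80 percent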
Calls: active = viability under 80%; inactive = viability 80% or more
This is an unselected part of the about 2,100 reagents, under one of the conditions tested. 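Calls flag viability under 80% in either arm, not effects specific to rucaparib; the reference for percent is not stated.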 Unmarked entries are inactive. A reagent listed more than once was tested more than once; the source does not tell the runs apart. No sequences are given here. Not stated in the record: the 100% reference.

For DLG1 (GeneID 1739), technical replicate 1, what does the deposit list?
viability, normalised (%): 95.3

With DLG1 (GeneID 1739), technical replicate 2, what does the deposit list?
viability, normalised (%): 72.1 (active)

For DLG1 (GeneID 1739), technical replicate 3, what was measured?
viability, normalised (%): 78.8 (active)

How did the screen score TBK1 (GeneID 29110), technical replicate 1?
viability, normalised (%): 71.3 (active)

For TBK1 (GeneID 29110), technical replicate 2, what does the deposit list?
viability, normalised (%): 47.2 (active)

With TBK1 (GeneID 29110), technical replicate 3, how do the results read?
viability, normalised (%): 41.2 (active)

With H4C1 (GeneID 8359), technical replicate 1, what does the deposit list?
viability, normalised (%): 77.2 (active)

With H4C1 (GeneID 8359), technical replicate 1, how do the results read?
viability, normalised (%): 89.8

What did the screen give for H4C1 (GeneID 8359), technical replicate 2?
viability, normalised (%): 55.5 (active)

How did the screen score H4C1 (GeneID 8359), technical replicate 2?
viability, normalised (%): 66.1 (active)

For H4C1 (GeneID 8359), technical replicate 3, what was measured?
viability, normalised (%): 94.4

With H4C1 (GeneID 8359), technical replicate 3, how do the results read?
viability, normalised (%): 76.7 (active)
